# Earlier results in US20040115708A1, “Method of screening agents for the treatment and prevention of cancer and cachexia and the new use of specific agents for the treatment and prevention of cancer and cachexia” (priority 2002, published 2004).
# Some results were stated once for a whole list of compounds, not compound by compound.
# Tested on: cultured keratinocytes
compound,measurement,value
C/C=C(/C)C(=O)O[C@H]1C(C)=C2[C@H]([C@@H]1OC(=O)CCCCCCC)[C@@](C)(OC(C)=O)C[C@H](OC(=O)CCC)[C@@]1(O)[C@H]2OC(=O)[C@@]1(C)O [thapsigargin],duration of oxidized state after transient increase in cytosolic calcium and H2O2,no more than 20 minutes
